Data as given in PubChem BioAssay AID1259308 (NCATS, 2017)
In all, the deposit lists about 59,000 reagents; shown is a part drawn at random. About 1,510 of all reagents (2.6%) were called active. 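Calls use total luciferase alone and ignore viability, so some active siRNAs may act by altering cell number.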 Entries without a mark were called inactive. Reagents against one gene are numbered here. Further read-outs or replicates are left out here.

Assay: 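Genes whose loss raises luciferase production in HEK293 cells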 (primary screen)
Cells: human HEK293 embryonic kidney cells stably expressing firefly luciferase (HEK-CMV-Luc2-Hygro)
Reagent: single siRNA against human genes, 0.8 pmol siRNA per well
Timing: 72 h
Detection: 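Reporter luminescence and viable-cell signal on separate replicate plates, given as percent of non-targeting control and median/MAD z-scores, plus per-cell luciferase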
Scale: total luciferase, z-score: higher = more reporter protein produced
Call rule: 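An siRNA counts as active if its total luciferase robust z-score exceeds 3; genes with two or more such siRNAs out of three were retested with fresh siRNAs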
Meaning of the calls: active = raised luciferase; inactive = no rise

Gene | reagent no. | total luciferase, z-score
BTN3A2 (GeneID 11118) | 1 | 0.059
BTN3A2 (GeneID 11118) | 2 | -0.0871
BTN3A2 (GeneID 11118) | 3 | -0.776
UGT3A2 (GeneID 167127) | 1 | 0.874
UGT3A2 (GeneID 167127) | 2 | -1.91
UGT3A2 (GeneID 167127) | 3 | -0.391
IL18R1 (GeneID 8809) | 1 | 0.0353
IL18R1 (GeneID 8809) | 2 | -0.589
IL18R1 (GeneID 8809) | 3 | 0.269
SETX (GeneID 23064) | 1 | 0.265
SETX (GeneID 23064) | 2 | 0.169
SETX (GeneID 23064) | 3 | 0.888
MTO1 (GeneID 25821) | 1 | 0.306
MTO1 (GeneID 25821) | 2 | -1.31
MTO1 (GeneID 25821) | 3 | -0.329
DFFA (GeneID 1676) | 1 | -0.452
DFFA (GeneID 1676) | 2 | 2.93
DFFA (GeneID 1676) | 3 | -1.4
TAC3 (GeneID 6866) | 1 | 0.185
TAC3 (GeneID 6866) | 2 | 1.7
TAC3 (GeneID 6866) | 3 | -0.284
ZNF570 (GeneID 148268) | 1 | -0.287
ZNF570 (GeneID 148268) | 2 | -0.361
ZNF570 (GeneID 148268) | 3 | 0.922
SLC26A4 (GeneID 5172) | 1 | 0.954
SLC26A4 (GeneID 5172) | 2 | 1.5
SLC26A4 (GeneID 5172) | 3 | -0.0149
MANEA (GeneID 79694) | 1 | 1.72
MANEA (GeneID 79694) | 2 | 1.62
MANEA (GeneID 79694) | 3 | -0.969
NDUFA9 (GeneID 4704) | 1 | 0.187
NDUFA9 (GeneID 4704) | 2 | 1.01
NDUFA9 (GeneID 4704) | 3 | 1.35
MAP3K7 (GeneID 6885) | 1 | 0.65
MAP3K7 (GeneID 6885) | 2 | -0.366
MAP3K7 (GeneID 6885) | 3 | 0.181
ADGRF2P (GeneID 222611) | 1 | -0.0828
ADGRF2P (GeneID 222611) | 2 | -0.213
ADGRF2P (GeneID 222611) | 3 | -0.535
GIP (GeneID 2695) | 1 | -0.326
GIP (GeneID 2695) | 2 | 0.322
GIP (GeneID 2695) | 3 | -1.33
LAMTOR5 (GeneID 10542) | 1 | -0.273
LAMTOR5 (GeneID 10542) | 2 | 1.59
LAMTOR5 (GeneID 10542) | 3 | -1.49
SULT1C3 (GeneID 442038) | 1 | 0.24
SULT1C3 (GeneID 442038) | 2 | 0.288
SULT1C3 (GeneID 442038) | 3 | -0.297
ZNF490 (GeneID 57474) | 1 | -0.381
ZNF490 (GeneID 57474) | 2 | 1.85
ZNF490 (GeneID 57474) | 3 | 0.0297
RPS15AP17 (GeneID 391656) | 1 | -2.05
RPS15AP17 (GeneID 391656) | 2 | -1.04
RPS15AP17 (GeneID 391656) | 3 | -1.74
PTX3 (GeneID 5806) | 1 | 1.18
PTX3 (GeneID 5806) | 2 | 0.462
PTX3 (GeneID 5806) | 3 | 0.797

As entered above.
Under “total luciferase, z-score”, DFFA (GeneID 1676) #3 reads -1.4
ZNF570 (GeneID 148268) #2, total luciferase, z-score → -0.361
Entry for LAMTOR5 (GeneID 10542) #2 under “total luciferase, z-score”: 1.59
SLC26A4 (GeneID 5172) #1, total luciferase, z-score → 0.954
Under “total luciferase, z-score”, PTX3 (GeneID 5806) #3 shows 0.797
MAP3K7 (GeneID 6885) #1, total luciferase, z-score: 0.65
